# Experiment: general procedure: Fmoc solid-phase peptide synthesis; Rink Amide resin; Oxyma/DIC
# Conditions: whole synthesis, scale 0.1 mmol
substance,measurement,value
NH2-PEG12-(Cys-Pro-Nal-Asp-Cys-Met-hArg-dAsp-Trp-Ser-Thr-Pro-Hyp-Trp-Cys)-TATA,isolated mass,30 mg
same,isolated yield,25% yield
